Record: PubChem BioAssay AID504808 (Drosophila RNAi Screening Center, 2011)
Test: 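Chromatin factors that keep E2F targets switched off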 (primary screen). Cell system: Drosophila S2 cells. Reagent: long dsRNA against Drosophila genes. Detection: 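Firefly luciferase driven by E2F sites, normalised to Renilla luciferase on the same minimal promoter, measured by plate reader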. Direction: E2F firefly: higher = more E2F reporter activity; Renilla normaliser: higher = more normaliser reporter signal. Hit rule: 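Called active if the normalised E2F reporter went up by over 50%; the cutoff is arbitrary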.
In all, the deposit lists about 21,000 reagents; below is a random part of those that have a named target and a result. In the full data, 18 (0.084%) got an active call. 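Raw counts without plate normalisation, one of two replicates; the ratio scores behind the calls were not deposited.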 A plus sign joins genes that one reagent is predicted to hit. Not given: the amount of reagent, the time to read-out.

target gene	DRSC id	E2F firefly, rep 1	Renilla normaliser, rep 1	outcome
CG8547	DRSC07211	2786	195	inactive
GluProRS (Glutamyl-prolyl-tRNA synthetase)	DRSC14095	67007	3002	inactive
Ctu1 (Cytosolic thiouridylase subunit 1)	DRSC07069	1.44e5	4733	inactive
Cen (Centrocortin)	DRSC02704	78513	3120	inactive
ppk29 (pickpocket 29)	DRSC04205	1.12e5	4638	inactive
Bmcp	DRSC10808	64606	2987	inactive
CG15471	DRSC18054	1.22e5	5534	inactive
CG34175	DRSC00424	1.44e5	4985	inactive
CG4982	DRSC10465	51642	3188	inactive
rb (ruby)	DRSC18826	77611	4595	inactive
Chd1 (Chromodomain-helicase-DNA-binding protein 1)	DRSC00745	81741	3746	inactive
mRpS17 (mitochondrial ribosomal protein S17)	DRSC04463	99632	4513	inactive
CG6983	DRSC10757	80085	3813	inactive
CG13423	DRSC06386	1.37e5	4456	inactive
ecd (ecdysoneless)	DRSC08574	71337	2980	inactive
Gat (GABA transporter)	DRSC17144	56429	4582	inactive
CG17570	DRSC01770	1.26e5	4257	inactive
CG17570	DRSC03754	1.00e5	4484	inactive
side-VII (sidestep VII)	DRSC14578	62492	3507	inactive
CG14005	DRSC02337	99058	3979	inactive
BomT3 (Bomanin Tailed 3)	DRSC13537	89061	2640	inactive
BomT3 (Bomanin Tailed 3)	DRSC15871	1.27e5	7645	inactive
CG7886	DRSC16333	1.06e5	5943	inactive
kst (karst)	DRSC08719	74192	3388	inactive
l(3)87Df (lethal (3) 87Df)	DRSC16982	1.24e5	5670	inactive
CG8405	DRSC05599	1.34e5	6296	inactive
CG8405	DRSC07166	1.49e5	5345	inactive
CG5819	DRSC04520	1.03e5	4404	inactive
Gr39a (Gustatory receptor 39a)	DRSC01841	1.23e5	4785	inactive
Gr39a (Gustatory receptor 39a)	DRSC01842	1.13e5	5843	inactive

The list goes on, starting with the last 9 of the part before.
target gene	DRSC id	E2F firefly, rep 1	Renilla normaliser, rep 1	outcome
BomT3 (Bomanin Tailed 3)	DRSC15871	1.27e5	7645	inactive
CG7886	DRSC16333	1.06e5	5943	inactive
kst (karst)	DRSC08719	74192	3388	inactive
l(3)87Df (lethal (3) 87Df)	DRSC16982	1.24e5	5670	inactive
CG8405	DRSC05599	1.34e5	6296	inactive
CG8405	DRSC07166	1.49e5	5345	inactive
CG5819	DRSC04520	1.03e5	4404	inactive
Gr39a (Gustatory receptor 39a)	DRSC01841	1.23e5	4785	inactive
Gr39a (Gustatory receptor 39a)	DRSC01842	1.13e5	5843	inactive
JIL-1 (JIL-1 kinase)	DRSC11200	65059	3051	inactive
qvr (quiver)	DRSC05280	1.37e5	5383	inactive
CG34334	DRSC20643	1.36e5	6736	inactive
Pvf3 (PDGF- and VEGF-related factor 3)	DRSC02284	1.51e5	4486	inactive
Pvf3 (PDGF- and VEGF-related factor 3)	DRSC02285	1.42e5	4637	inactive
Pvf3 (PDGF- and VEGF-related factor 3)	DRSC02286	1.40e5	4598	inactive
Pvf3 (PDGF- and VEGF-related factor 3)	DRSC02751	1.50e5	5298	inactive
Jasper (JIL-1 anchoring and stabilizing protein)	DRSC16352	1733	908	inactive
mod(mdg4) (modifier of mdg4)	DRSC13474	81401	2740	inactive
mod(mdg4) (modifier of mdg4)	DRSC13475	74350	2584	inactive
mod(mdg4) (modifier of mdg4)	DRSC13478	84765	2553	inactive
mod(mdg4) (modifier of mdg4)	DRSC13479	82492	2460	inactive
mod(mdg4) (modifier of mdg4)	DRSC15042	1.42e5	7815	inactive
mod(mdg4) (modifier of mdg4)	DRSC17000	75110	5077	inactive
Gip (GIP-like)	DRSC18667	50430	3507	inactive
hig (hikaru genki)	DRSC07628	71174	4179	inactive
Ir94e (Ionotropic receptor 94e)	DRSC15229	1.09e5	6087	inactive
CG1924	DRSC19823	1.37e5	6482	inactive
CG10804	DRSC17764	1894	864	inactive
Art9 (Arginine methyltransferase 9)	DRSC16584	1.15e5	6092	inactive
CG9222	DRSC03158	1.46e5	5375	inactive
CG17770 + Acam	DRSC14110	1.14e5	6872	inactive
CG17770 + Acam	DRSC15264	1.12e5	5551	inactive
CG12546 + CG14452	DRSC11709	94979	6540	inactive
CG34047 (retired record)	DRSC07857	1.48e5	4018	inactive
CG31300	DRSC14657	1.12e5	5381	inactive
CG2924	DRSC18525	1568	980	inactive
Src64B (Src oncogene at 64B)	DRSC08700	89239	3883	inactive
bard	DRSC14796	1.26e5	7116	inactive
CG8389	DRSC07158	76058	3397	inactive
yip3 (yippee interacting protein 3)	DRSC04724	84803	4373	inactive
CG4866	DRSC06899	1.37e5	4988	inactive
14-3-3zeta	DRSC05028	3425	295	inactive
CG15480	DRSC02490	1.07e5	4023	inactive
CG14671	DRSC12257	1.38e5	6459	inactive
CG30480	DRSC06736	94449	3859	inactive
lectin-30A	DRSC02560	1.33e5	5056	inactive
Rad60	DRSC15580	1.08e5	5214	inactive
Cp18 (Chorion protein 18)	DRSC11120	96709	4208	inactive
CG6893	DRSC10742	1.58e5	6561	inactive
CG44251	DRSC06856	93657	3996	inactive
Tmem214 (Transmembrane protein 214)	DRSC02924	1.69e5	5030	inactive
Tmem214 (Transmembrane protein 214)	DRSC02925	1.62e5	5141	inactive
CG34393	DRSC00419	1.56e5	5313	inactive
CG34393	DRSC00710	1.58e5	5259	inactive
wech	DRSC06606	85423	3559	inactive
Agpat3 (1-Acylglycerol-3-phosphate O-acyltransferase 3)	DRSC10445	74870	3380	inactive
Bdbt (Bride of doubletime)	DRSC15218	1.17e5	6431	inactive
CG30389	DRSC04077	66074	3090	inactive
CG30389	DRSC04452	99401	4536	inactive
CG8584	DRSC07217	1.52e5	5012	inactive
Dnali1 (Dynein axonemal light intermediate chain 1)	DRSC16158	78404	4065	inactive
Ogg1 (8-oxoguanine DNA glycosylase)	DRSC17738	8115	676	inactive
galene	DRSC08640	92959	4349	inactive
galene	DRSC08641	1.01e5	4418	inactive
